The values below come from publication PMC4231742.

Amino acid sequences for entries named in this document (tags omitted).
UniProt P01100, whole entry: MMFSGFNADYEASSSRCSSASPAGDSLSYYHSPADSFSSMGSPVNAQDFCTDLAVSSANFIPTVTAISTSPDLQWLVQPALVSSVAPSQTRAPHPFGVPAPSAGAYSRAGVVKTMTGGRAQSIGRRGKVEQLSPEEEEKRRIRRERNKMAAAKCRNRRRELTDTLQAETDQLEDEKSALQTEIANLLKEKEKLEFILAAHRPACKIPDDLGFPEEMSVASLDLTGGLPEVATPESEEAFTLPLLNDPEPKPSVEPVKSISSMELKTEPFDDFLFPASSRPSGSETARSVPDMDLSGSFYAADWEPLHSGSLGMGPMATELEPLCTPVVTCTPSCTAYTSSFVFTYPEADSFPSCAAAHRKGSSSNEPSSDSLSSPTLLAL
UniProt P05412, whole entry: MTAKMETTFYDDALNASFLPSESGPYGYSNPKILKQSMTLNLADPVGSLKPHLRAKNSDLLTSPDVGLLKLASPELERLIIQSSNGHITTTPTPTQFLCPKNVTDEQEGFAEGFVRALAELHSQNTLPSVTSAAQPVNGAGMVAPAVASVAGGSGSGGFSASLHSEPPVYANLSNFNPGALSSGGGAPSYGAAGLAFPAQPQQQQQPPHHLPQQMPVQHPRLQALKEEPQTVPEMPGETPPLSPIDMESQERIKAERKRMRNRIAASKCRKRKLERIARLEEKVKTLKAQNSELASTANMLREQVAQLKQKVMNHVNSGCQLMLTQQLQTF

One data set addresses c-Fos (AP-1) (UniProt P01100). Description: EMSA antibody supershift. The following applies: TPA-treated HepG2 nuclear extract; LightShift Chemiluminescent EMSA kit; 3'-biotin probes with nuclear extract of TPA-treated HepG2; pH and temperature not stated; protein in an extract; label: 3' biotin.
A further data set deals with c-Jun (AP-1) (UniProt P05412). Description: EMSA antibody supershift. Conditions: TPA-treated HepG2 nuclear extract; LightShift Chemiluminescent EMSA kit; 3'-biotin probes with nuclear extract of TPA-treated HepG2; pH and temperature not stated; protein in an extract; label: 3' biotin. Background: In EMSA bound probe runs differently from free probe, usually more slowly.

For at least one entry, the source does not settle the construct or the ends of the probe. Where cells or extracts were used, other partners may take part.

As to “TCCCACTGACTCATTGGAAGAGCTGTGTGACTCAGTGTAT (double strand) [Site A]”, the binding result with c-Fos (AP-1) and in the data set with c-Jun (AP-1) was “binds” throughout.
“TGTATGTGTGTCACATTTGAAGTCACCAGTT (double strand) [Site B]”: the binding result in the data set with c-Fos (AP-1) and with c-Jun (AP-1) was “binds” each time.
